Measurements: patent publication US20020127268A1, “Anion regulator for ruminants” (AJINOMOTO CO., INC., priority 1997, published 2002)

Experiments:
Type in all cases: in vivo
Holstein calves [1] = test: Palatability test No. 1 (free-choice intake of mixed feed); details: for Amount of intake (%): additive equivalent to −300 meq in 100 g concentrated feed, after 10 minutes of feeding; for Palatability compared with NH4Cl, MgSO4·7H2O and CaCl2·2H2O: Holstein calves, Table 1 summary
Holstein milk cows = test: Palatability test No. 2 (free-choice intake of mixed feed); details: for Amount of intake (%): additive equivalent to −600 meq in 200 g concentrated feed, ten minutes; for Palatability compared with NH4Cl, MgSO4·7H2O and CaCl2·2H2O: Holstein milk cows in dry period, Table 2 summary
Holstein calves [2] = test: Test on anion regulating activity (urinary pH); details: in words
Experimental: If a DCAD value is positive, the urinary pH is 7-8.5. It is also known that if an anion regulator is added, and as a result the feed is changed to show a negative DCAD value, the urinary pH of animals to which such feed has been fed is reduced and will show a value of 6.5-5.5 when the anion regulator has been added in an appropriate amount. […] (1995), Sep., p.634 (Japanese version).
Experiments were conducted using six(6) Holstein calves with a body weight of approximately 200 kg. They were divided into three groups, two calves in a group. The groups were each fed with one of the following three(3) types of experimental feeds. Feed consisting of […] concentrated feed (“Beef-fast”, ex Itochu Feed Co.), 550 g of timothy-hay and 550 g of alfalfa hay cubes was fed, twice a day, at 9 and 16 o'clock, for one week before the start of the experiment, for adaptation.
These three(3) types of mixed feeds were separately supplied to each group at 9 and 16 o'clock on the same day and at 9 o'clock on the next day. After 10 minutes, each mixed feed was removed, and subsequently, a mixture of 900 g of concentrated feed, 500 g of timothy-hay and 550 g of alfalfa hay cubes, was supplied instead.
In the table and figure, for example, terms Lys HCl 1 and Lys HCl 2 indicate respectively the two calves in the first group which was fed with Lys HCl (Lys HCl-feeded group).

Row | Structure (SMILES) | Amount of intake (%) (Holstein calves [1]; Calf 1) | Amount of intake (%) (Holstein calves [1]; Calf 2) | Amount of intake (%) (Holstein calves [1]; Calf 3) | Amount of intake (%) (Holstein milk cows; Cow 4) | Amount of intake (%) (Holstein milk cows; Cow 5) | Amount of intake (%) (Holstein milk cows; Cow 6) | Palatability compared with NH4Cl, MgSO4·7H2O and CaCl2·2H2O (Holstein calves [1]) | Intake of feed admixed with the compound (Holstein calves [2]) | Palatability compared with NH4Cl, MgSO4·7H2O and CaCl2·2H2O (Holstein milk cows)
1 | O.O.[Ca+2].[Cl-].[Cl-] [CaCl2.2H2O, CaCl2·2H2O, reference compound] | 0% | 0% | −3% | 27% | −9% | 0% | – | – | –
2 | Cl.N=C(N)NCCC[C@H](N)C(=O)O [L-arginine hydrochloride, L-arginine monohydrochloride] | 44% | 17% | 63% | 73% | 50% | 35% | better palatabilities | eaten well | better palatabilities
3 | Cl.NCCCC[C@H](N)C(=O)O [L-lysine hydrochloride, L-lysine monohydrochloride] | 40% | 15% | 80% | 89% | 88% | 73% | better palatabilities | eaten well | better palatabilities
4 | Cl.NCCC[C@H](N)C(=O)O [L-ornithine hydrochloride, L-ornithine monohydrochloride] | 65% | 15% | 52% | 55% | 70% | 40% | better palatabilities | – | better palatabilities
5 | O.O.O.O.O.O.O.O=S(=O)([O-])[O-].[Mg+2] [MgSO4.7H2O, MgSO4·7H2O, reference compound] | 35% | 14% | 50% | 55% | 15% | 24% | – | – | –
6 | Cl.N [NH4Cl, reference compound] | 38% | 11% | 43% | 43% | 47% | 33% | – | – | –
